Experimental data from paper PMC6238420.
These are yes or no findings as the source states them, for the method shown. Binding seen in cells or lysates may run through a third protein. Some entries that bind do so weakly or less than the wild type.

By UniProt entry, the sequences of proteins in these tests, tags left out.
UniProt O08586: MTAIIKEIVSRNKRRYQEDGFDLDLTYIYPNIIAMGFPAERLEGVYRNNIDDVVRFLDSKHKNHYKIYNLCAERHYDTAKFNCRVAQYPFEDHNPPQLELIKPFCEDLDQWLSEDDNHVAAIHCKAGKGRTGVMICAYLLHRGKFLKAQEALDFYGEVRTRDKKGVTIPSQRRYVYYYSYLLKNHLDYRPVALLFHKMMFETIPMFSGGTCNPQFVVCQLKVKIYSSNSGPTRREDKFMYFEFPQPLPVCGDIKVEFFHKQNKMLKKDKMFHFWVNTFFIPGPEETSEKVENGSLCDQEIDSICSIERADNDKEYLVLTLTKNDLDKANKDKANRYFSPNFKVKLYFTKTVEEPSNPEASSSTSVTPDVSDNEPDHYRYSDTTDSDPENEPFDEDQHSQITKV
UniProt O35445: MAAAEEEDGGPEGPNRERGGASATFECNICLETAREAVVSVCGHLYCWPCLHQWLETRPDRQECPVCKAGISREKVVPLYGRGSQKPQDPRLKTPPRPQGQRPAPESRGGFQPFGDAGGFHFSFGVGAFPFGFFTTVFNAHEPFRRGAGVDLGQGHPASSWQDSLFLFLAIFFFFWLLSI

Target: PTEN, endogenous in Smo^KO mouse pancreatic fibroblasts (mouse (endogenous in Smo^KO pancreatic fibroblasts)) (UniProt O08586)
Test: co-IP; Smo^KO fibroblasts lysed in non-denaturing extraction buffer; immunoprecipitation with PTEN antibody (IgG as control), PRO-A magnetic beads; Western blot with RNF5 antibody

## RNF5, endogenous in Smo^KO mouse pancreatic fibroblasts (from UniProt O35445 1-180)
  binding: binds
